Reference: patent US20170306005A1 (NASCIENT, published 2017)
No constants are given. Whether binding was seen depends on the method and setting. Some binding calls cover weakened binding; strength is not graded here. For part of these data: Sequences can lack the tags named with a protein.

How the values were obtained:
[1] = molecular target: tenascin-C (Nascient), full length (UniProt P24821); test: western blot, reducing SDS-PAGE
[2] = molecular target: T1, human tenascin-C rCd4-His-FBG (rat; human, UniProt P05540 207-392, limits assumed); test: western blot, reducing SDS-PAGE
T1 construct: domain: domains 3 and 4; C-terminal FBG fusion; biotinylated in the ELISA and HTRF screens; also called Hu TNC; human TNC rCd4-His-FBG; not shown: 6His tag
T1 sequence (chain (part 1 of 2)): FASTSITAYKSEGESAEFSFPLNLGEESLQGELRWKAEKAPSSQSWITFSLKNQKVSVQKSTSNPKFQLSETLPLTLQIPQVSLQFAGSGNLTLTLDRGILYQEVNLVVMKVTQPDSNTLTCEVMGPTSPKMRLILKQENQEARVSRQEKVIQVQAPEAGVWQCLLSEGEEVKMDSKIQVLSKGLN
T1 sequence (chain (part 2 of 2)): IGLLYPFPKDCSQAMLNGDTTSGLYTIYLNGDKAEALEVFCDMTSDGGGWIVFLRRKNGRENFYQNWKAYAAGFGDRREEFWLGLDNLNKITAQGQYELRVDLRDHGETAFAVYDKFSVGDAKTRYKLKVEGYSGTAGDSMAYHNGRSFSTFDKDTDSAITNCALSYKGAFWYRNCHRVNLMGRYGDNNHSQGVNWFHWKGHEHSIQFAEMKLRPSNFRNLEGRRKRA

[3] = molecular target: T2, human His-FBG citrullinated with PAD4 (human, UniProt P24821 1974-2201, arginines citrullinated by peptidylarginine deiminase 4; positions not stated); test: SPR, captured IgG4, 25 C
T2 construct: also called His-FBG + PAD4; citrullinated His-FBG; not shown: His tag
T2 sequence: T1 sequence (chain (part 2 of 2))

[4] = molecular target: T3, human His-FBG citrullinated with PAD2 (human, UniProt P24821 1974-2201, arginines citrullinated by peptidylarginine deiminase 2; positions not stated); test: SPR, captured IgG4, 25 C
T3 construct: also called His-FBG + PAD2; citrullinated His-FBG; not shown: His tag
T3 sequence: T1 sequence (chain (part 2 of 2))

[5] = molecular target: T1, human tenascin-C rCd4-His-FBG; test: western blot
[6] = molecular target: T1, human tenascin-C rCd4-His-FBG; test: western blot, 10% SDS-PAGE under reducing conditions, nitrocellulose; B12 IgG4 MAb 1:20,000 (0.25 ug/ml) overnight at 4 C; 5 min exposure

- binding [1]: binds
- binding [2]: binds
- binding [3]: binds
- binding [4]: binds
- binding [5]: binds
- binding [6]: binds
B1: B12 human IgG4 (antibody, V domains shown)
VH: QVQLVESGGGLVQPGRSLRLSCAASGFTFDDYAMHWVRQAPGKGLEWVSGISGSGGSTYYADSVKGRFTISRDNAKNSLYLQMNSLRAEDTALYYCAKDISAVPDTFDIWGQGTMVTVSS
VL: DIQMTQSPASLPTPVGDRVTITCRASQYIQGFLNWYQQKPGKAPKLLIYDASNLETGVPSRFSGSGSGTDFTLTISSLQPEDFATYYCQQSYSTPQTFGQGTKVDIKR
notes: human IgG4 with hinge S241P; also called B12 parent; B12-hIgG4
